These are yes or no findings as the source states them, for the method shown. In cells and extracts the contact can be indirect. A result given as binding can be weak or reduced; the word gives no strength. Tags and fused reporters may be left off the sequences shown.
Target: Myc-tagged RPL12 (Ribosomal Protein L12) (D. melanogaster)
Test: co-IP; S2 cells co-transfected with FLAG-tagged Corto constructs and Myc-tagged ribosomal proteins; cell extracts; immunoprecipitation with anti-FLAG or anti-Myc, Western blot with the same antibodies

binding: binds
B1: FLAG-tagged full-length Corto (protein, UniProt P41046 1-550)
chain: MTMAACYANYDMSSLSHGMSALSALQQQQQQQQQQHSQTQQQHHHQQQQQHMYHAAVAAHQQQLLQQQQQQQHHRHHHQPANTSSSSNSRHSHAAATQTQVAAAVANSRQQQQQQQQQQQQQQQQQTASSNSNAAPAPSPQKDYSIPLHVDCSVEYELPNQPKPPAGQRVEPLLMIHPCYFRKMESQRRSPFVNNMHATARAVSSSSLSSGAALGGGGSGAAVATAPSSSAARRGARAATSAQQQQQQQQRYQQQQQQLRQQHQQMSQMSQQAHYPQQQSSLVRQHQQQQQQQQQQQRASSNQSQRQSQSQSQSQSHAANSAAAAAAQASIAAAAAGQWDQLAALAARTALTPHHMLHPHSHYAAKGSGGGAGGGKRDAMISGSYGQTAVASGKLQQSQVQQQQPQQQQQHCLPPPPWDATSMLMDRSPMATVPSNYQAGPDTNPMRLYSATPTAGAASGGSASVGGGGAVSGAGATGAVNTATDKLSGKYRQYLRSQRMHPYAAAASLNLAAAAAAAGQTSFVPFSSAATAVAATPTFQHLPQISCYNV

Source: publication PMC3469418, “New Partners in Regulation of Gene Expression: The Enhancer of Trithorax and Polycomb Corto Interacts with Methylated Ribosomal Protein L12 Via Its Chromodomain” (PLoS Genetics, 2012)
